Measurements from patent US20240293365A1, “METHODS FOR TREATING AND AMELIORATING T CELL RELATED DISEASES” (The Regents of the University of California, priority 2021, published 2024).
Residue numbers refer to the chain shown, from its start. For at least one compound, name, drawing or mass did not settle the structure.

Columns and labels:
Type in all cases: cell-based
[1] = system: saFRET biosensor with a kinase-dead domain (saFRETkd); test: Counter screening with control biosensor with a kinase-dead domain (saFRETkd)
ZAP70-R360P = biological target: T1, ZAP70-R360P (Homo sapiens, UniProt P43403, R360P); test: pZAP70 (Y493) staining in P116-ZAP70 R360P cells; conditions: sunitinib pre-treatment
T1 construct: Full-length ZAP70-WT or R360P were expressed with YPet via a cleavable P2A linker; YPet co-expressed via P2A linker (separated from ZAP70; P2A remnant residues possible) (cleaved yes); expressed in transfected cells; host or cells: P116 T cells (ZAP70-deficient)
T1 sequence (P43403 1-619 R360P): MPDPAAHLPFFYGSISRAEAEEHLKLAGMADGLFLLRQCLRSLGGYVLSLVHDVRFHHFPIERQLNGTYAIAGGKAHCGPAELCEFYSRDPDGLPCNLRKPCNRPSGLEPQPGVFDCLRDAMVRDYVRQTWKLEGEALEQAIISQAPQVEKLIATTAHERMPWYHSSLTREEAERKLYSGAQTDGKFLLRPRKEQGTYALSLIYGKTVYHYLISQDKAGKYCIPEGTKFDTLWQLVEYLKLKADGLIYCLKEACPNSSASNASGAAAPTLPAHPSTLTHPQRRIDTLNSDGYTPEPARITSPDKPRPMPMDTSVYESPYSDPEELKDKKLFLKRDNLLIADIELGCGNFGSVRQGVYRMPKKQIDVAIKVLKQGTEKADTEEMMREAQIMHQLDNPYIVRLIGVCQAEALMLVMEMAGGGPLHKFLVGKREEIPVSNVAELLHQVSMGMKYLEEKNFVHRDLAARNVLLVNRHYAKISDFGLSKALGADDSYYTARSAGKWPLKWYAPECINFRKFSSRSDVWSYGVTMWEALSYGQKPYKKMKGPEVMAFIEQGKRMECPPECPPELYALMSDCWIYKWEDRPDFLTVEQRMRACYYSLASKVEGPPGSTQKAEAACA

LAT(Y191) [2] = test: pLAT (Y191) staining in P116-ZAP70 R360P cells; conditions: sunitinib pre-treatment
ZAP70 kinase = biological target: T2, ZAP70 kinase (Homo sapiens, UniProt P43403); test: pZAP70 (Y493) staining in Jurkat T cells after anti-TCR stimulation; conditions: 30 min pretreatment, anti-TCR stimulation 5 min
T2 construct: endogenous in cells; host or cells: Jurkat T cells
T2 sequence (P43403 1-619): T1 sequence (P43403 1-619 R360P) with P360R

LAT(Y191) [3] = test: pLAT (Y191) staining in Jurkat T cells after anti-TCR stimulation; conditions: 30 min pretreatment, anti-TCR stimulation 5 min
P116-ZAP70-R360P cells = test: Flow-cytometry analysis of CD69 expression in P116-ZAP70-R360P cells after anti-TCR stimulation; conditions: sunitinib pre-treatment
T cells = test: Flow-cytometry analysis of CD69 expression in T cells after anti-TCR stimulation; conditions: general T cell activation model, sunitinib pre-treatment

In the case of `CCN(CC)CCNC(=O)c1c(C)[nH]c(/C=C2\C(=O)Nc3ccc(F)cc32)c1C` [sunitinib], the “effect of compound fluorescence on FRET signal of saFRETkd compared to the positive screening” value [1] is reported as “not significant”, the “phosphorylated ZAP70 (pZAP70 Y493 intensity)” value (ZAP70-R360P) is reported as “Significant reductions” and the “phosphorylated LAT(Y191) intensity” value (LAT(Y191) [2]) is reported as “Significant reductions”. For the same compound, the “phosphorylated ZAP70 (pZAP70 Y493 intensity)” value (ZAP70 kinase) was “Significant reductions”, the “phosphorylated LAT(Y191) intensity” value (LAT(Y191) [3]) was “Significant reductions” and the “CD69 expression (hyperactivation of T cells)” value (P116-ZAP70-R360P cells) was “abolished”. For the same compound, the “CD69 expression (hyperactivation of T cells)” value (T cells) was “abolished”.
